# According to PubChem BioAssay AID504444 (National Center for Advancing Translational Sciences (NCATS), 2011):
# Screen size: about 360,000 compounds; about 7,500 (2.1%) were called active. Inconclusive means that the source gave no clear call. Such entries were picked first, then a sample of the others. Calls come from the whole dose curve; as a rule, active = well fitted inhibition curve with a large enough effect; inconclusive = small, poorly fitted or top-dose-only effect, or effect the other way; inactive = flat fitted curve, though single readings scatter. Potencies beside an inconclusive call are fits to weak or partial responses and may not hold up.
# Experiment: Nrf2 qHTS screen for inhibitors; note: nearly all actives have a fitted effect of over 60% in size
# Conditions: A549 ARE-Fluc reporter, luciferase luminescence, 18-24 h; series mostly up to 46 µM
# Summary of the method: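 Concentration-response testing used A549 ARE_Fluc cells at 5000 cells/well. Following an 18-24 h compound incubation, viability was read by fluorescence (Ex 405/Em 525) and luciferase output by luminescence.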
# Potency is the fitted concentration of half-maximal effect.
row,Structure (SMILES),Potency
1,COc1cccc(N(CC(=O)Nc2ccc3c(c2)OCO3)S(=O)(=O)c2ccccc2)c1,"inconclusive: 13 µM [falling, partial curve, poor fit]"
2,COCCN=C1Sc2nc3ccc(C)cc3cc2CN1Cc1ccco1,"inconclusive: 10.3 µM [activator, partial curve, poor fit]"
3,COC(=O)c1ccccc1NC(=O)N1c2ccccc2CC1C (stereo unspecified),"inconclusive: 32.6 µM [activator, partial curve, poor fit]"
4,COc1ccc(-c2c(-c3cc(OC)cc(OC)c3)n(C)c3ccc(-c4ccc(S(N)(=O)=O)cc4)cc23)cc1,"inconclusive: 23.1 µM [falling, partial curve]"
5,Nc1nnc(N)c2ccccc12,inactive
6,CCn1nnc2cc(C(=O)Nc3cc(Cl)ccc3C)ccc21,"inconclusive: 10.3 µM [falling, partial curve, poor fit]"
7,O=C(NCc1ccc(F)cc1)c1ccc(Nc2nc3ccccc3n3nnnc23)cc1,"inconclusive: 1.84 µM [falling, full curve]"
8,COc1ccc(C(=O)NC(=S)NNC(=O)c2ccc(NC(C)=O)cc2)cc1Br,"inconclusive: 13 µM [falling, partial curve, poor fit]"
9,Cc1cc(C)nc(SCC(=O)Nc2sc3c(c2C#N)CCC(C)C3)n1 (stereo unspecified),"inconclusive: 20.6 µM [falling, single point]"
10,CCn1c(SCC(=O)c2[nH]c(C)c(C(C)=O)c2C)nnc1-c1ccccc1,"inconclusive: 29.1 µM [falling, single point]"
11,Cn1c(=O)n(C)c2cc(S(=O)(=O)Nc3ccc(F)cc3)ccc21,active: 9.2 µM
12,Cc1ccc(NC(=S)c2ccccc2)cc1,"inconclusive: 25.9 µM [activator, single point]"
13,CCOc1ccc(N(CC(=O)NCCc2ccccc2)C(=O)CCC(=O)Nc2cc(C)ccn2)cc1,"inconclusive: 20.6 µM [falling, single point]"
14,C=CCN(CC=C)Cc1c(C)[nH]c2ccc(C(=O)OCC)cc2c1=O,inactive
15,COc1ccc(CNC(=O)Cn2ncc3c([nH]c4ccccc43)c2=O)cc1,"inconclusive: 29.1 µM [activator, single point]"
16,COc1ccc(NC(=O)C23CC4CC(C2)CC(c2ccc(C)cc2)(C4)C3)cc1,active: 16.4 µM
17,COC(=O)c1ccccc1NC(=S)NC(=O)c1ccc2ccccc2c1,"inconclusive: 11.6 µM [falling, partial curve, poor fit]"
18,CC1CCN(c2c(NCc3ccc(C(=O)N4c5ccccc5CC4C)cc3)c(=O)c2=O)CC1 (stereo unspecified),active: 9.2 µM
19,Cc1cc(C)nc(SCc2ccc(C(=O)N/N=C/c3cccc(O)c3O)cc2)n1,"inconclusive: 14.6 µM [falling, single point]"
20,Cc1cccc(OCc2nnc(SCC(=O)N3c4ccccc4CC3C)n2C)c1C (stereo unspecified),"inconclusive: 31.6 µM [falling, single point]"
21,COc1ccccc1C=Cc1ccnc2ccccc12,"inconclusive: 3.66 µM [activator, full curve]"

# Pulled by compound from the entries so far (2):
row,Structure (SMILES),Potency
5,Nc1nnc(N)c2ccccc12,inactive
7,O=C(NCc1ccc(F)cc1)c1ccc(Nc2nc3ccccc3n3nnnc23)cc1,"inconclusive: 1.84 µM [falling, full curve]"

# Following part

row,Structure (SMILES),Potency
1,CCc1cccc(C)c1NC(=O)Cn1c(=O)cc(C)c2c(C)nn(-c3cccc(F)c3)c21,"inconclusive: 29.1 µM [activator, single point]"
2,Cc1ccc2nc(CCc3ccc(N)cc3)[nH]c2c1,"inconclusive: 29.1 µM [activator, single point]"
3,COc1ccc(NC(=O)c2ccccc2-c2ccc(C(F)(F)F)cc2)cc1S(=O)(=O)N1CCOCC1,"inconclusive: 20.6 µM [falling, partial curve, poor fit]"
4,Cc1nn(-c2ccc(N3CCCC3)nn2)c(C)c1CCC(=O)Nc1ccc(F)cc1F,"inconclusive: 2.91 µM [falling, full curve, poor fit]"
5,CNC(=O)/C(C#N)=C/c1c(N2CCN(c3cccc(Cl)c3)CC2)nc2c(C)cccn2c1=O,"inconclusive: 20.6 µM [falling, single point]"
6,COc1ccc(/C=C2\C(=O)N(Cc3ccc(F)cc3)CC(=O)N2Cc2ccccc2)cc1,"inconclusive: 20.6 µM [activator, single point]"
7,N#Cc1ccsc1NC(=O)CSc1nncs1,"inconclusive: 0.58 µM [activator, full curve]"
8,COc1ccc(CNC(=O)c2ccc3oc(C(C)C)nc3c2)cc1,"inconclusive: 5.17 µM [activator, full curve]"
9,Cn1c(CCc2ccccc2)nnc1SCC(N)=O,"inconclusive: 1.3 µM [falling, partial curve]"
10,O=C1CCCC2=C1C(c1ccccc1Cl)N=C(Nc1nc3ccccc3o1)N2 (stereo unspecified),inactive
11,CCOC(=O)c1cc(C)n(-c2ccccc2)c1C,"inconclusive: 29.1 µM [activator, single point]"
12,CC(C)c1ccc(NC(=O)c2ccc(Cn3nc(N4CCN(c5ccccc5)CC4)ccc3=O)o2)cc1,"inconclusive: 4.11 µM [falling, full curve, poor fit]"
13,O=C(Cn1ncn2nc(-c3cccs3)cc2c1=O)NCc1ccccc1Cl,inactive
14,Clc1cccc(-c2nc3nc4ccccc4nc3n2Cc2ccccc2)c1,inactive
15,S=C1NC2=C(CCCC2=C2SCCS2)C(c2ccccc2)N1 (stereo unspecified),"inconclusive: 29.1 µM [activator, single point]"
16,COC(=O)CSc1ccc(S(=O)(=O)N2CCCCCC2)cc1[N+](=O)[O-],inactive
17,Cc1cccn2c(=O)c3cc(C(=O)NCc4ccco4)c(=N)n(CCc4ccccc4)c3nc12,"inconclusive: 11.6 µM [activator, partial curve, poor fit]"
18,Cc1ccc(C(C(=O)NC2CCCCC2)N(Cc2ccccc2)C(=O)Cc2c[nH]c3ccccc23)o1 (stereo unspecified),"inconclusive: 29.1 µM [falling, single point]"
19,Cc1ccc(N2CCN(S(=O)(=O)c3ccc4c(c3)NC(=O)C(C)C(=O)N4)CC2C)cc1 (stereo unspecified),"inconclusive: 25.9 µM [falling, single point]"
20,COc1ccc(CC(=O)N(C)Cc2ccc(C(C)(C)C)cc2)cc1S(=O)(=O)N1CCOCC1,"inconclusive: 23.1 µM [falling, single point]"
